The list shows a part of the results.

Protein sequences, listed by entry. Tags and fused reporters are not part of them. Lines headed by an entry give the natural chain unless they say otherwise; changes in a name come on top.
UniProt Q14232, whole entry, looked up: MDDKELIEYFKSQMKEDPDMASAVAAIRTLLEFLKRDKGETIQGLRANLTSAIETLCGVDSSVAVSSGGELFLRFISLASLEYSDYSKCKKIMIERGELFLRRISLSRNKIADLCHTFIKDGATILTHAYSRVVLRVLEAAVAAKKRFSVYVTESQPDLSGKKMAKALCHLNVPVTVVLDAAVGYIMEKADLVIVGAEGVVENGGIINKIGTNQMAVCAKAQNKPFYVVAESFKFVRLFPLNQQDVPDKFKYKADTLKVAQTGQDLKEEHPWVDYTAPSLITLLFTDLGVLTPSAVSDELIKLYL
UniProt Q9NZN4: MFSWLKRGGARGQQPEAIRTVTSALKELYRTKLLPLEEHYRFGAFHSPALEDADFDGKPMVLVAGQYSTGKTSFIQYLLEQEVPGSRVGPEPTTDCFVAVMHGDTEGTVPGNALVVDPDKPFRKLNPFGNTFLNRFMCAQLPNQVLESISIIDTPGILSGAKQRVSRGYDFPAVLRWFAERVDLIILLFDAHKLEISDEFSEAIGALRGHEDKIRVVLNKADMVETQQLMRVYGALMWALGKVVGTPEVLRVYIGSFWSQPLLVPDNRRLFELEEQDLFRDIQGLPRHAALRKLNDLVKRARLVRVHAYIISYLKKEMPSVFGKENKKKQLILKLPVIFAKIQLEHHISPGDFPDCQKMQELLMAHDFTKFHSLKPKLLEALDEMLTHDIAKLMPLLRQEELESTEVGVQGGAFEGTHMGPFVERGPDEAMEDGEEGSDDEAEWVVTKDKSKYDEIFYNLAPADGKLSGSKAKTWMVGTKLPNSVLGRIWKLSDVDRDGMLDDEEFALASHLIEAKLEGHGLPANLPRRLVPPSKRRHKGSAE
UniProt P41091, whole entry, looked up: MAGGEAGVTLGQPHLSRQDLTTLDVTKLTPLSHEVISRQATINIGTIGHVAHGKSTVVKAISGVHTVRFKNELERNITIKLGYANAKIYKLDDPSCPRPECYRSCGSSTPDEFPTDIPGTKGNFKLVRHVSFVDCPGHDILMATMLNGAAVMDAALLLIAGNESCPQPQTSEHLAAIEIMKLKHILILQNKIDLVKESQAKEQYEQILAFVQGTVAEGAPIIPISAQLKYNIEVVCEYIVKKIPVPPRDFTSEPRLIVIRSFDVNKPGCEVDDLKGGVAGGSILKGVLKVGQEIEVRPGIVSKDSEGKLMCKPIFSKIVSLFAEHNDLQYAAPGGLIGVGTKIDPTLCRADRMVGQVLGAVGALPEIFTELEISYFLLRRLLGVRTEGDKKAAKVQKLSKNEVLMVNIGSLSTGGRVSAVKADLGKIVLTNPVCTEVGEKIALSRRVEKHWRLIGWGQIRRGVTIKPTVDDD
UniProt Q15369, whole entry, looked up: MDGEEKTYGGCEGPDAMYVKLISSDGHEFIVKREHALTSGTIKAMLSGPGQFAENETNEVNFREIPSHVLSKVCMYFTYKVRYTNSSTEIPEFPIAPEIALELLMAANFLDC
UniProt Q96C19: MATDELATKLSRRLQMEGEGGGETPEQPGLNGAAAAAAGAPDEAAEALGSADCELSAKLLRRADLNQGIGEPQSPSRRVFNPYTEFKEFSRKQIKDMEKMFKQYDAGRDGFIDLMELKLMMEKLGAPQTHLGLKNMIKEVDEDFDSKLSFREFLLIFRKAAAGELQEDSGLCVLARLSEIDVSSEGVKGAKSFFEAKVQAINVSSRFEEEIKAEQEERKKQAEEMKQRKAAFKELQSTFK
UniProt O75071: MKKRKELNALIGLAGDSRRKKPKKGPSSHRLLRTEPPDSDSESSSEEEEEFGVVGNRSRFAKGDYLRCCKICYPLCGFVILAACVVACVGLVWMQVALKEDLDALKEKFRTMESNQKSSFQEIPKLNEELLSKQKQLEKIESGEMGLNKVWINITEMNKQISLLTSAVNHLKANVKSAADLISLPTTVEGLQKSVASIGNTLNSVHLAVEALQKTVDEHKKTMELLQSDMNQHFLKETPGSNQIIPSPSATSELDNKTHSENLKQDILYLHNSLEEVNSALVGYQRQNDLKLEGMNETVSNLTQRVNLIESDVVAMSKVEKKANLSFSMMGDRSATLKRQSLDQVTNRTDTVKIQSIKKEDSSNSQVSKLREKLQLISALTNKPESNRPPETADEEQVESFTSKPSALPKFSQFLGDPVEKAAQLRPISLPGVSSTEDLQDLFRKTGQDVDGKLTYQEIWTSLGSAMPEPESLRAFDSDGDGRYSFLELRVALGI
UniProt O95163: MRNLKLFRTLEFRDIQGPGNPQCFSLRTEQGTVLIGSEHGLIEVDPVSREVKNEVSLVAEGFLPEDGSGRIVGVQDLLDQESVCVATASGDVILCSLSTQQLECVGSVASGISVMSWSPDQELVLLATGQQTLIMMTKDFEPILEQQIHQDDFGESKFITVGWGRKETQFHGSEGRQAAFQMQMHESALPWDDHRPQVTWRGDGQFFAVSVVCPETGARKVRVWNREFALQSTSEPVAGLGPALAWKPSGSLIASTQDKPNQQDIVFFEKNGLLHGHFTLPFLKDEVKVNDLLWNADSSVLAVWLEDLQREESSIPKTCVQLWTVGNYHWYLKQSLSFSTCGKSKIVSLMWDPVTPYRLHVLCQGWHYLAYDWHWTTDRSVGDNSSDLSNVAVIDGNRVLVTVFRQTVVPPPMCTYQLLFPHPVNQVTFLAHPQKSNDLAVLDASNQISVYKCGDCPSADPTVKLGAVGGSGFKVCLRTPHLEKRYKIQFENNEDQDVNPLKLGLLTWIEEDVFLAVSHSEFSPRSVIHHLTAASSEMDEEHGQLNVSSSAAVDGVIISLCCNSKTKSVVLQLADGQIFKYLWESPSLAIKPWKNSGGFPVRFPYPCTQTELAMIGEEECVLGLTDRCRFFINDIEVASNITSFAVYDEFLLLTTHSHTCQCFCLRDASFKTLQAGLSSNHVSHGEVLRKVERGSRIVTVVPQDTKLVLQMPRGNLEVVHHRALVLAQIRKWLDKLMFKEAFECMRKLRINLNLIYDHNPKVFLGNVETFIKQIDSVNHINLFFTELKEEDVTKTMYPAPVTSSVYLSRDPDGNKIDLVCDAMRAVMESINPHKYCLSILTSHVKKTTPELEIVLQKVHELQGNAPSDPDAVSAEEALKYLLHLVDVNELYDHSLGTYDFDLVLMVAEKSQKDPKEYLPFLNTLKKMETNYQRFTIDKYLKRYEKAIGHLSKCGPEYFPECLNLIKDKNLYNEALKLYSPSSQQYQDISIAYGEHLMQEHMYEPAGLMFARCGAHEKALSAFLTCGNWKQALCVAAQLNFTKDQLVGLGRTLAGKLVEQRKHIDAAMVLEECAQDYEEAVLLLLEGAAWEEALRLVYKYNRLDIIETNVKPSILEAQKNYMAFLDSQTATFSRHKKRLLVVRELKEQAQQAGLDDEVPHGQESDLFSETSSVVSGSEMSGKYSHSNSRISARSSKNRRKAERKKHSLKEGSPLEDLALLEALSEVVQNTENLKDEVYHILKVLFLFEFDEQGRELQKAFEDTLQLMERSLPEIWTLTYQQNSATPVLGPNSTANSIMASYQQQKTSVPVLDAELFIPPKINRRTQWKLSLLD
UniProt Q9NYP7: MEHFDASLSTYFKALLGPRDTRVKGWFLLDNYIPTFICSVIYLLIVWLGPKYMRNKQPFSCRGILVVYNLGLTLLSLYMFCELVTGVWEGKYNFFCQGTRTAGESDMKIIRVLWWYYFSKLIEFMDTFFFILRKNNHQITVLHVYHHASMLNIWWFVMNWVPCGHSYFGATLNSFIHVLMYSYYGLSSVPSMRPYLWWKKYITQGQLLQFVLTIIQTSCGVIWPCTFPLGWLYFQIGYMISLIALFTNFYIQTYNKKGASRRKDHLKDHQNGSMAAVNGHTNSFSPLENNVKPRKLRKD
UniProt P29692: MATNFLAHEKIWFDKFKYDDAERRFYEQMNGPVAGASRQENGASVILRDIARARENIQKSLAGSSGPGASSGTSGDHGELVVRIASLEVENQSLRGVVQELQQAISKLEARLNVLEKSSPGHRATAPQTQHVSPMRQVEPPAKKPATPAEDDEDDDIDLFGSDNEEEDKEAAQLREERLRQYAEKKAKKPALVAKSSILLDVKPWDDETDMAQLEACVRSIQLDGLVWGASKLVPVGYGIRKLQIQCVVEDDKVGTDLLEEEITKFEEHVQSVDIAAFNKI
UniProt P41567, whole entry, looked up: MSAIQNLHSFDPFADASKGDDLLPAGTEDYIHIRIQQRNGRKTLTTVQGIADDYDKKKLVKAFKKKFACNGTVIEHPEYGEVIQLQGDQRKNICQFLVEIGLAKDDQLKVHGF
UniProt Q14249: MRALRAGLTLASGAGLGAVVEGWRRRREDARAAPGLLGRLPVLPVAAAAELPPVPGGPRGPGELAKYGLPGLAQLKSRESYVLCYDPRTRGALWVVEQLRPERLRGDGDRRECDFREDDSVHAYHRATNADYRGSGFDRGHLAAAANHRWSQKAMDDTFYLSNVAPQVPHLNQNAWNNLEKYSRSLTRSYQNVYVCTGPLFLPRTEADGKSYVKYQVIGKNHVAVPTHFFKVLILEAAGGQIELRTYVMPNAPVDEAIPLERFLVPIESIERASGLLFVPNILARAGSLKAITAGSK
UniProt Q04637, whole entry, looked up: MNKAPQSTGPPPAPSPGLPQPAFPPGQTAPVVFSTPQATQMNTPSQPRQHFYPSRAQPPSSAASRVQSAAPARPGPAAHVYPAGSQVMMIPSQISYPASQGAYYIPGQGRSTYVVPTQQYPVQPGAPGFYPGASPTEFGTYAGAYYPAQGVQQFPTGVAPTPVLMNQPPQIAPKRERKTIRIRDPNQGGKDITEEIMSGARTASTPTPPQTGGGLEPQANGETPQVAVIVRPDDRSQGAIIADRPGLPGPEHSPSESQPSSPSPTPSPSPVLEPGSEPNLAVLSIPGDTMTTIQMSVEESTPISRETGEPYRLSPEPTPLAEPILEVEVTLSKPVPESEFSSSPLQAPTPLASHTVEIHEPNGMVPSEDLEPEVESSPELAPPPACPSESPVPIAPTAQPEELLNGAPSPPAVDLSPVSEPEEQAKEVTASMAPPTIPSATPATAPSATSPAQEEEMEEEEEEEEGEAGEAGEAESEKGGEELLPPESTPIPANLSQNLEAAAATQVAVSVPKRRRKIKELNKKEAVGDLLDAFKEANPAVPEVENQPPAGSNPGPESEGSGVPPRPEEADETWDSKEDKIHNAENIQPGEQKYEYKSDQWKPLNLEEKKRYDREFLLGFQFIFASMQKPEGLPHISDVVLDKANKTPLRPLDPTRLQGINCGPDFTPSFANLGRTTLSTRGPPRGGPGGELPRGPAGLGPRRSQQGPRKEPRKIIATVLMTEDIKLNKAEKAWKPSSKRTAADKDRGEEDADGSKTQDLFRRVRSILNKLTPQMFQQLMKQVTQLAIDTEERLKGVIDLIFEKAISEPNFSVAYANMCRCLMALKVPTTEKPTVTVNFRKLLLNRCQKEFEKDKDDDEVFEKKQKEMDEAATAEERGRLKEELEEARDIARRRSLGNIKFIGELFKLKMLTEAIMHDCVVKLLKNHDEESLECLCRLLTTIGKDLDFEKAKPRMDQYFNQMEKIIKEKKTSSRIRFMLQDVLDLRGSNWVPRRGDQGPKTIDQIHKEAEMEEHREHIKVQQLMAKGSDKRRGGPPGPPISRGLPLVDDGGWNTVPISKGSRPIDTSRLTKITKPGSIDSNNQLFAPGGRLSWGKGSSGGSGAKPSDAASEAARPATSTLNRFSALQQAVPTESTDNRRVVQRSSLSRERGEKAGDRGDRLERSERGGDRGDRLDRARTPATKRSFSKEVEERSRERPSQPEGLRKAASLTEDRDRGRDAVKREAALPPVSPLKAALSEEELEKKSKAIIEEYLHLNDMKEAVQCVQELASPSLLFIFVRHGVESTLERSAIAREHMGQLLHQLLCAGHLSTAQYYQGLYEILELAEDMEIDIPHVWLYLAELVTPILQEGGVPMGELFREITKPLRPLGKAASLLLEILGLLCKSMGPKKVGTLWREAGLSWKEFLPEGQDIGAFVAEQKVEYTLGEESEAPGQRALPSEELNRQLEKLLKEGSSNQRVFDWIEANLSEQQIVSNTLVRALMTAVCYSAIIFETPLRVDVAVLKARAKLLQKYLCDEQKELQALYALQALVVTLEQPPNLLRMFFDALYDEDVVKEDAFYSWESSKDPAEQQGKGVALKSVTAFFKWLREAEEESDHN
UniProt O75822, whole entry, looked up: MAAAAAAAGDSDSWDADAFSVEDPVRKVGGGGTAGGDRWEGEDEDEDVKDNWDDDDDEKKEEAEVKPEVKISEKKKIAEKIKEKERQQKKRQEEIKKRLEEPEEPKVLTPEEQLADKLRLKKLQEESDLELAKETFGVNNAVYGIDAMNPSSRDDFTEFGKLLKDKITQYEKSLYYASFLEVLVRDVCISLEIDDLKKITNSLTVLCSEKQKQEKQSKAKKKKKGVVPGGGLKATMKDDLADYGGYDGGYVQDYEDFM

Compound in this assay: NC1(c2ccc(-c3nc4ccn5c(=O)[nH]nc5c4cc3-c3ccccc3)cc2)CCC1
As to the kind of experiment: log2 fold change, soluble protein after heating vs DMSO (PISA); higher = thermal stabilisation; K562 cells, 10 uM, 30 min; active = over 0.2 and 3.5 SD of the protein, either way, in both replicates (recomputed). Summed up: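 Thermal stability values are relative to control samples and come from duplicates. They are expressed as log2 fold changes. For measurement, K562 cells (2×10^6 cells/mL) received 10 μM compound for 30 min, and aliquots were heated for 3 min over 48°C-58°C, pooled, and extracted at 4°C in PBS with 0.5% NP-40. Soluble protein, the supernatant after 21,000xg for 90 min, was quantified by TMTpro 16plex LC-MS/MS with equalised channel sums.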
Take ELOVL1 (UniProt Q9BW60): the log2 fold change was inactive: -0.087. Take EGLN1 (UniProt Q9GZT9): the log2 fold change was inactive: -0.043. The value for EIF5 (UniProt P55010) was inactive: -0.045. The value for EIF2B1 (UniProt Q14232) was inactive: 0.024. The same measure for EHBP1L1 (UniProt Q8N3D4): inactive: -0.039.

Take EOGT (UniProt Q5NDL2): the log2 fold change is inactive: -0.045. For EHD2 (UniProt Q9NZN4), the log2 fold change is inactive: -0.072. The value for EMC8 (UniProt O43402) was inactive: -0.052; that for EIF4H (UniProt Q15056) was inactive: 0.034. The same measure for EIF2S3 (UniProt P41091): inactive: 0.163; for EIF5B (UniProt O60841): inactive: 0.019; for ELOC (UniProt Q15369): inactive: -0.015. The same measure for EFHD2 (UniProt Q96C19): inactive: -0.135; for EFCAB14 (UniProt O75071): inactive: -0.123. Turning to EEF1B2 (UniProt P24534), the log2 fold change is inactive: -0.035.

As to EFL1 (UniProt Q7Z2Z2), the log2 fold change was inactive: -0.106.

Consider EIF1AD (UniProt Q8N9N8), for which the log2 fold change is inactive: 0.027.

Regarding EMD (UniProt P50402), the log2 fold change was inactive: -0.068. Consider ELP1 (UniProt O95163), for which the log2 fold change is inactive: -0.051.

For ELOVL5 isoform 2 (UniProt Q9NYP7), the log2 fold change is inactive: -0.194.

As for EEF1AKNMT (UniProt Q8N6R0), the log2 fold change is inactive: -0.109. The value for EEF1D isoform 2 (UniProt P29692) was inactive: -0.034; that for EEF1G isoform 2 (UniProt P26641) was inactive: -0.1; that for EIF4E isoform 2 (UniProt P06730) was inactive: 0.059. The same measure for EIF3I (UniProt Q13347): inactive: -0.086; for EED, A0A5F9ZI63: inactive: 0.037. Consider EIF3F (UniProt O00303), for which the log2 fold change was inactive: -0.063. The same measure for EIF1 (UniProt P41567): inactive: 0.103. As for ENDOG (UniProt Q14249), the log2 fold change was inactive: -0.038. Turning to EIF4G1 isoform 8 (UniProt Q04637), the log2 fold change was inactive: -0.154.

In the case of EIF4A1 (UniProt P60842), the log2 fold change is inactive: -0.029.

Regarding EHD4 (UniProt Q9H223), the log2 fold change was inactive: -0.073.

On to EIF3J (UniProt O75822), for which the log2 fold change was inactive: -0.072.

The values are drawn from the supplement of paper PMC10849652.
